From paper PMC7449961 come the findings set out here.

The chains behind the UniProt entries cited, without tags or fusion partners. Residues count along the entry.
UniProt Q03172, residues 189-547: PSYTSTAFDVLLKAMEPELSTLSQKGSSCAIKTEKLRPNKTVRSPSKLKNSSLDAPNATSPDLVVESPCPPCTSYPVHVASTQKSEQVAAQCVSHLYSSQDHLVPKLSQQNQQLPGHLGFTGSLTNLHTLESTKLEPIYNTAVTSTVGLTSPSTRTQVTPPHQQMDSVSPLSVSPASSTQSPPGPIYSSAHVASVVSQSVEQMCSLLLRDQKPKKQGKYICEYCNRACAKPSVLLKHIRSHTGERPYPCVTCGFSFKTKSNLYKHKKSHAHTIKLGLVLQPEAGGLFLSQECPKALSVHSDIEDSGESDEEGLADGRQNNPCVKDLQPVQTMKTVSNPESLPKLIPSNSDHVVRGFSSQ
UniProt P70297, residues 367-523: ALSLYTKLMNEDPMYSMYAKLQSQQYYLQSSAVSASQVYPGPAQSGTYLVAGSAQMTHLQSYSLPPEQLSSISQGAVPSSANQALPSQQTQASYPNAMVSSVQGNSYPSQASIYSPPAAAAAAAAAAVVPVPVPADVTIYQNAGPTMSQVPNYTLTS
UniProt Q9WUU8, residues 259-554: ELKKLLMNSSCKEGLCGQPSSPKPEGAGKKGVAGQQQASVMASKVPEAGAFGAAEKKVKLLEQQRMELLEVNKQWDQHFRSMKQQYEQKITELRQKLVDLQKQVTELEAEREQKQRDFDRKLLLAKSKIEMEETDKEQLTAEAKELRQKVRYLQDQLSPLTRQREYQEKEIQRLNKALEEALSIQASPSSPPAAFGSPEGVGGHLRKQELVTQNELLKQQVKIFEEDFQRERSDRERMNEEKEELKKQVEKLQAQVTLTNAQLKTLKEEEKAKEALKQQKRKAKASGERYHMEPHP
UniProt Q08122, residues 118-296: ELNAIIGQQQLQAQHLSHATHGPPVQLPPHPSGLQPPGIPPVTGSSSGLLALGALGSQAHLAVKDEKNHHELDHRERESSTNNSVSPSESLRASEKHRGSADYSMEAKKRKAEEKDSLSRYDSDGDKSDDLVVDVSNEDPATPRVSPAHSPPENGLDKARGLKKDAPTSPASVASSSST

The target in this assay is T1, mouse GON4L PAH domains (1,458–1,857 a.a.) (mouse) (UniProt Q9DB00).
T1 sequence: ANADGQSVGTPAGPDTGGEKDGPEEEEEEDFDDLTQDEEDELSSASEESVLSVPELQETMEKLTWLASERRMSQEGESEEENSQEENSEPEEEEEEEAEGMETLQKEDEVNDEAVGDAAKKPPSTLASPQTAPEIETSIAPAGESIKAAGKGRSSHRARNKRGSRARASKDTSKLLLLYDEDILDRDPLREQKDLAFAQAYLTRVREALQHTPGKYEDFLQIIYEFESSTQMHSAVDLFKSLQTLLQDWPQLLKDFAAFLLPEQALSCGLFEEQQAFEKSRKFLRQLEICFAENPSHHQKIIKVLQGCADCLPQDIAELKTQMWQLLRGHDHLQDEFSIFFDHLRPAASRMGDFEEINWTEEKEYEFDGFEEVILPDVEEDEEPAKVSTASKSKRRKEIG
Description: two-hybrid; library screen by Myriad Genetics; LexA and Gal4 system; mouse Gon4l fragments as bait against prey libraries from murine embryos, B lymphocytes and cardiac myocytes; bait and prey plasmids co-transformed into a naïve yeast strain to recapitulate the interaction.

Results are given in words; binding and its absence hold for the method and conditions named. Some results given as binding are weak or reduced against the parent protein; the word gives no strength.

Turning to “Human Immunodeficiency Virus Type I Enhancer Binding Protein 1 (from UniProt Q03172 189-547) (domain or fragment)”, the binding result was “binds”. With “Signal-Transducing Adaptor Molecule 1 (from UniProt P70297 367-523) (domain or fragment)”, the binding entry is on record as “binds”. As for “TNIP1 (printed name: TNFAIP3 Interacting Protein 3), A20-binding inhibitor of NF-κB activation (ABIN-3)) (from UniProt Q9WUU8 259-554) (domain or fragment)”, the entry is “binds”. For “Protein phosphatase 3, catalytic subunit, beta isoform (from UniProt P48453-1 410-525) (domain or fragment)”, the binding entry was “binds”. For the molecule “Transducin-Like Enhancer Of Split 3, Homolog Of Drosophila E (from UniProt Q08122-3 118-296) (domain or fragment)”, the binding entry is given as “binds”. For “Bromodomain containing 4 (mouse, two-hybrid prey) (from UniProt Q9ESU6-1 821-1006) (domain or fragment)”, the binding result is given as “binds”.

B1: Intersectin 1 (domain or fragment, UniProt Q9Z0R4-1 65-582)
chain: ADMNNDGRMDQVEFSIAMKLIKLKLQGYQLPSTLPPVMKQQPVAISSAPAFGIGGIASMPPLTAVAPVPMGSIPVVGMSPPLVSSVPPAAVPPLANGAPPVIQPLPAFAHPAATLPKSSSFSRSGPGSQLNTKLQKAQSFDVASAPPAAEWAVPQSSRLKYRQLFNSHDKTMSGHLTGPQARTILMQSSLPQAQLASIWNLSDIDQDGKLTAEEFILAMHLIDVAMSGQPLPPVLPPEYIPPSFRRVRSGSGMSVISSSSVDQRLPEEPSSEDEQQPEKKLPVTFEDKKRENFERGSVELEKRRQALLEQQRKEQERLAQLERAEQERKERERQEQERKRQLELEKQLEKQRELERQREEERRKEIERREAAKRELERQRQLEWERNRRQELLNQRNKEQEGTVVLKARRKTLEFELEALNDKKHQLEGKLQDIRCRLATQRQEIESTNKSRELRIAEITHLQQQLQESQQMLGRLIPEKQILSDQLKQVQQNSLHRDSLLTLKRALEAKELARQQLR
Consider B1, for which the binding entry is recorded as “binds”.

B2: Tho complex 1 (mouse, two-hybrid prey) (domain or fragment, UniProt Q8R3N6 338-532)
chain: FKSSNYVLTDEQSLWIEDTTKSVYQLLSENPPDGERFSKMVEHILNTEENWNSWKNEGCPSFVKERASDTKPTRVVRKRAAPEDFLGKGPNKKILIGNEELTRLWNLCPDNMEACKSETREYMPTLEEFFEEAIEQADPENMVESEYKAVNNSNYGWRALRLLARRSPHFFQPTNQQFKSLPEYLENMVIKLAKE
On to B2, for which the binding result was “binds”.

B3: Cramped-like, cramp1L (domain or fragment, UniProt Q6PG95 654-897)
chain: EHLSSQGQPATRPSKEVPASQLAQQLREEGWSLQTSESLTLAEVYLMMGKPTKLQLEYDWLAVLGPESQAPTAQGQTALSRSSPSALHQQRLLSCLLRLISTEVHPKMAFEANTASTASVRPTQEEQSTTPPGKVVTINSRSPRCSRNPSTLRSNKTFPSASAPCSPGLRNPPRPLLVAGPSSTGSSDSDGGLFAVPTTLPPNSRHGKLFSPSKEAELTFRQHLDSISIQSDFFSPKPKKLRKR
On to B3, for which the binding result is “binds”.

B4: Aryl hydrocarbon receptor nuclear translocator-like 2 (domain or fragment, UniProt Q2VPD4-1 259-579)
chain: LRSWPLNVVGMEKESGGGKDSGPLTCLVAMGRLHPYIVPQKSGKINVRPAEFITRFAMNGKFVYVDQRATAILGYLPQELLGTSCYEYFHQDDHSSLTDKHKAVLQSKEKILTDSYKFRVKDGAFVTLKSEWFSFTNPWTKELEYIVSVNTLVLGRSETRLSLLHCGGSSQSSEDSFRQSCINVPGVSTGTVLGAGSIGTDIANEVLSLQRLHSSSPEDASPSEEVRDDCSVNGGNAYGPASTREPFAVSPSETEVLEAARQHQSTEPAHPHGPLPGDSAQLGFDVLCDSDSIDMAAFMNYLEAEGGLGDPGDFSDIQWAL
B4: the binding result was “binds”.

B5: Forkhead box a2 (mouse, two-hybrid prey) (domain or fragment, UniProt P35583 5-176)
chain: VKMEGHEPSDWSSYYAEPEGYSSVSNMNAGLGMNGMNTYMSMSAAAMGGGSGNMSAGSMNMSSYVGAGMSPSLAGMSPGAGAMAGMSGSAGAAGVAGMGPHLSPSLSPLGGQAAGAMGGLAPYANMNSMSPMYGQAGLSRARDPKTYRRSYTHAKPPYSYISLITMAIQQSP
For B5, the binding result is on record as “binds”.

B6: ski sarcoma viral oncogene homolog (domain or fragment, UniProt Q60698 591-725)
chain: LRVAKKEKLREATEAKRNLRKEIERLRAENEKKMKEANESRVRLKRELEQARQVRVCDKGCEAGRLRAKYSAQVEDLQAKLQHAEADREQLRADLLREREAREHLEKVVRELQEQLRPRPRPEHPGGESNAELGP
As to B6, the binding result was “binds”.

B7: Group specific component (mouse, two-hybrid prey) (domain or fragment, UniProt P21614 16-240)
chain: ALERGRDYEKDKVCNELAMLGKEDFRSLSLILYSRKFSSSTFEQVNQLVKEVVSLTEECCAEGADPTCYDTRTSELSVKSCESDAPFPVHPGTPECCTKEGLERKLCMAALSHQPQEFPTYVEPTNDEICEAFRRDPKGFADQFLYEYSSNYGQAPLPLLVAYTKNYLSMVGSCCTSANPTVCFVKERLQMKHLSLLTTMSNRVCSQYAAYGKEKSRLSHLIKLA
With B7, the binding result is “binds”.

B8: FCHSD2/Carom/FCH and double SH3 domains 2/F-BAR And Double SH3 Domains Protein 2 (domain or fragment, UniProt Q3USJ8-1 249-554)
chain: LIAFSRTELETCQAIQNTFQFLLENSSKVVRDYNLQLFLQENAVFHKPQPFQFQPCDSDTSRQLESETGTTEEHSLNKEARKWATRVAREHKNIVHQQRVLNELECHGVALSEQSRAELEQKIDEARESIRKAEIIKLKAEARLDLLKQIGVSVDTWLKSAMNQVMEELENERWARPPAVTSNGTLHSLNADAEREEGEEFEDNMDVFDDSSSSPSGTLRNYPLTCKVVYSYKASQPDELTIEEHEVLEVIEDGDMEDWVKARNKVGQVGYVPEKYLQFPTSNSLLSMLQSLAALDSRSHTSSNST
As for B8, the binding entry is listed as “binds”.
